Measurements: the supplement of paper PMC5949888
Most values lie at the floor of the assay. Slopes are relative: functional sequences can read slightly below zero.

Tested on: Saccharomyces cerevisiae PS128 hsf1 delta, HSF1(1-493) fusion
Assay: growth estimate (transactivation domain function in HSF1 fusion, heat-shock survival) (a.u. (slope of normalised read count over time)); higher = stronger growth at 37°C, i.e. more transactivation activity
Settings: library: random library

Row | Substance | growth estimate
1 | SAAN | < -0.25
2 | SAAWIYIYPSICQGLRGARW | < -0.25
3 | SACH | < -0.25
4 | SACNG | < -0.25
5 | SACPGGWNPDSSAMMPRRAK | < -0.25
6 | SACVAITYLIEYRS | < -0.25
7 | SADNRACSAFFGMGN | < -0.25
8 | SADPQPPGHR | < -0.25
9 | SADSRLAIWNGFVFQA | < -0.25
10 | SAGERLTGSVLI | < -0.25
11 | SAGNSCRGMWPVLHLRSLMD | < -0.25
12 | SAHLVFTV | < -0.25
13 | SAHVRAVIPGAISWSLIRRP | -0.246
14 | SAIDSTERPRFGVSLVGEGG | < -0.25
15 | SAIGSLHLVYTYSSSWMSLA | < -0.25
16 | SAIP | < -0.25
17 | SAIPGLPR | < -0.25
18 | SAISSGATAFGTKVGKPGTG | < -0.25
19 | SAKSGPTA | -0.243
20 | SALGRC | < -0.25
21 | SALHHICIP | < -0.25
22 | SALKLLVG | -0.243
23 | SAM | < -0.25
24 | SAMRYSGSKGEDMSHRRIC | < -0.25
25 | SAMSYV | < -0.25

Row | Substance | growth estimate
26 | SAN | < -0.25
27 | SANKRAMKEG | < -0.25
28 | SANRMRSVLRTLVRLLVNES | < -0.25
29 | SAPNRVRVDAKQFLTALSYT | < -0.25
30 | SAQIFLIDRDAAGPDRTKER | < -0.25
31 | SAQKLRHRLVGRLIVTRLKD | < -0.25
32 | SARISSRAK | < -0.25
33 | SARPWARVSTV | < -0.25
34 | SARSG | < -0.25
35 | SARSPVYKKE | < -0.25
36 | SARVRFVDGKSSKCGVRADV | < -0.25
37 | SARVVCRKSCF | < -0.25
38 | SARVVHSKLSRVQTETGNIT | < -0.25
39 | SASGLRCSSVRINTKSRGPS | < -0.25
40 | SASGPVVRRHVGREL | < -0.25
41 | SASVLARVRLLGETVKPVSL | < -0.25
42 | SASYLRVKCRFGRRSHVSST | < -0.25
43 | SASYRWSASPQVGSLF | < -0.25
44 | SATTSPNPEKFY | < -0.25
45 | SAVKCVNVQLNLWIRHGSKL | < -0.25
46 | SAVMISPSSSTRGSVQTSML | < -0.25
47 | SAVREGGVDLVKGTLRVNVG | < -0.25
48 | SAVVARFVTRHQLLTHCTD | < -0.25
49 | SAYRWIIRMGYRRQ | -0.231
50 | SCAAFKGNALSVRSCRVENR | < -0.25

Row | Substance | growth estimate
51 | SCAIITTWLWLSSSRDAVGR | < -0.251
52 | SCAVIGKGNHYLCGQGLVHT | < -0.25
53 | SCAWTTLRTCASLWRTALGL | -0.172
54 | SCCRAGWGCLVWQRSLAGHH | < -0.25
55 | SCCVPKTVNAGTVDCKSHGQ | -0.229
56 | SCDP | < -0.25
57 | SCEESSDPG | < -0.25
58 | SCEICCGEEKYRGLHLW | < -0.25
59 | SCFED | < -0.25
60 | SCGALRMPCKSLRVAGGGMP | < -0.25
61 | SCGMRGCIK | < -0.25
62 | SCGQIWYKYLAALGLQWAIE | < -0.25
63 | SCGRQS | < -0.25
64 | SCGVV | < -0.25
65 | SCGWGTIAWTSGLRHYLAGH | < -0.25
66 | SCHEKGQYSRLVTSGPSWTG | < -0.25
67 | SCHMGGICILTSLSVVRWIW | < -0.25
68 | SCIAKASVKCAVQPRREIPQ | < -0.25
69 | SCLEPGLLMGTLVRHRGTGY | < -0.25
70 | SCLLCLLFVGIQVYVELVRS | < -0.25
71 | SCMRGTIEVLRK | < -0.25
72 | SCNALHLWVSRTGAWFANSR | < -0.25
73 | SCPGGSRVGLLQRVVAGTPP | < -0.25
74 | SCPGLPE | < -0.25
75 | SCPGPKVCATEYRDRDPFCD | < -0.25

Seven entries from above, tab-delimited.
Row	Substance	growth estimate
2	SAAWIYIYPSICQGLRGARW	< -0.25
3	SACH	< -0.25
4	SACNG	< -0.25
5	SACPGGWNPDSSAMMPRRAK	< -0.25
6	SACVAITYLIEYRS	< -0.25
7	SADNRACSAFFGMGN	< -0.25
8	SADPQPPGHR	< -0.25

(listing goes on)

Row | Substance | growth estimate
76 | SCPLVGESCCARGAGNRFRR | < -0.25
77 | SCQAGCLAP | < -0.25
78 | SCQWSSDHRVCD | < -0.25
79 | SCRGRRGFNRNTG | < -0.25
80 | SCRIGV | < -0.25
81 | SCRRASTVDTERSVPLECVR | < -0.25
82 | SCSGRWSGRLLTVRT | < -0.25
83 | SCSK | < -0.25
84 | SCTAKRILFTVDRPLGALVT | < -0.25
85 | SCTAQLHTWLFVESRCVGLP | < -0.25
86 | SCTDRRSFRFNL | < -0.25
87 | SCTLRAPSSKNRWQELHRRH | < -0.25
88 | SCTPRGCKLHVFDSLHL | < -0.25
89 | SCVIPYSSKEITRREQNART | < -0.25
90 | SCVNGSVLWG | < -0.25
91 | SCVPVIVLSASDTGAIAYGS | -0.246
92 | SCYTERDQFGAAWAATSGVT | < -0.25
93 | SCYVNCVRGFQSCDRS | < -0.25
94 | SDA | < -0.25
95 | SDAAPAQCCRARILRRCLTH | < -0.25
96 | SDADSV | < -0.25
97 | SDC | < -0.25
98 | SDCGPLRGGLTG | < -0.25
99 | SDCRIGS | < -0.25
100 | SDEQIVGVGPLAY | < -0.25
